Values from PubChem BioAssay AID602196 (INSERM, 2012)
In all, the deposit lists about 23,000 reagents; below is a random part of them. Of all reagents, 455 (2%) got an active call. 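Active includes both protection and sensitisation; some change values fall well beyond the stated -50 to +50 range.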 Entries without a mark were called inactive. No sequences are given here. The record does not give: the amount of reagent.

Test: 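Modifiers of cisplatin sensitivity in A549 cells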
System: human A549 lung cancer cells
Reagents: siRNA pair against human genes
Duration: 48 h transfection before cisplatin; time from cisplatin to read-out not stated
Treatment: cisplatin at a dose killing half of control-siRNA cells; exact dose and duration not given
Detection: 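Cisplatin cell death as a shift from the 50% death seen with control siRNA; siRNAs toxic or growth-blocking alone scored 0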
Scale: two-siRNA summed score (-2 to +2): higher = both siRNAs protect from cisplatin killing; -2 means both sensitise; mean protection from cisplatin (shift in death) and protection from cisplatin (shift in death), siRNA C and protection from cisplatin (shift in death), siRNA D: higher = protection from cisplatin killing
Call rule: 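Each siRNA scores 0 if harmful alone by LDH or WST-1, otherwise +1 if it reduces and -1 if it increases cisplatin killing; a gene is active when both siRNAs agree (sum +2 or -2)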
Meaning of the calls: active = both siRNAs shift cisplatin killing the same way; inactive = no consistent shift, or siRNA harmful alone

gene	two-siRNA summed score (-2 to +2)	mean protection from cisplatin (shift in death) (%)	protection from cisplatin (shift in death), siRNA C (%)	protection from cisplatin (shift in death), siRNA D (%)
LOC440470	0	27	22.2	31.9
HLA-DPB1 (major histocompatibility complex, class II, DP beta 1)	0	3.7	1.5	6
LOC442133	1	10	13.9	6.1
TENM3 (teneurin transmembrane protein 3)	0	-3.9	-8.7	0.9
SIDT2 (SID1 transmembrane family member 2)	0	7	1.3	12.6
HERC5 (HECT and RLD domain containing E3 ubiquitin protein ligase 5)	0	-9.6	-17.9	-1.3
SOX2 (SRY-box transcription factor 2)	0	15.5	13.6	17.4
IFT46 (intraflagellar transport 46)	0	4.5	13.1	-4
ATG2A (autophagy related 2A)	1	8.7	16.3	1.1
OR4C15 (olfactory receptor family 4 subfamily C member 15)	-1	-10.1	-5.7	-14.6
ULK4 (unc-51 like kinase 4)	0	5.7	6.5	5
CCDC86 (coiled-coil domain containing 86)	0	-3.8	-3.6	-4
PALS2 (protein associated with LIN7 2, MAGUK p55 family member)	-1	-20.1	-1.5	-38.7
LOC440665	2 (active)	12.7	11.7	13.8
CRIP1 (cysteine rich protein 1)	1	3.9	-8.2	16

Entries above whose gene name starts with H or h:
gene	two-siRNA summed score (-2 to +2)	mean protection from cisplatin (shift in death) (%)	protection from cisplatin (shift in death), siRNA C (%)	protection from cisplatin (shift in death), siRNA D (%)
HLA-DPB1 (major histocompatibility complex, class II, DP beta 1)	0	3.7	1.5	6
HERC5 (HECT and RLD domain containing E3 ubiquitin protein ligase 5)	0	-9.6	-17.9	-1.3

Additional entries:
gene	two-siRNA summed score (-2 to +2)	mean protection from cisplatin (shift in death) (%)	protection from cisplatin (shift in death), siRNA C (%)	protection from cisplatin (shift in death), siRNA D (%)
RIPPLY3 (ripply transcriptional repressor 3)	0	11.1	18	4.1
ENOX1 (ecto-NOX disulfide-thiol exchanger 1)	0	11.6	11.4	11.8
TOPORS	-2 (active)	-23.3	-20.1	-26.4
PDGFA (platelet derived growth factor subunit A)	0	0.4	-4.5	5.3
LOC283299	0	17.2	22.6	11.8
PRRX1 (paired related homeobox 1)	0	20.1	15.4	24.8
SEC14L4 (SEC14 like lipid binding 4)	0	-12.3	-25.2	0.7
BRIP1 (BRCA1 interacting DNA helicase 1)	1	40.2	57.1	23.2
